The data set is described as follows: Fmoc solid-phase peptide synthesis; Fmoc-Rink amide MBHA resin. The conditions noted are these: whole synthesis, analytical HPLC.

As to INWKKWWQVFYTVV-NH2, the “final HPLC purity” value was determined as 100%.

For the origin of these results see article PMC5415599 (Frontiers in Microbiology, 2017).
